PMC6629890
These are yes or no findings as the source states them, for the method shown. Binding seen in cells or lysates may run through a third protein. These calls come from enrichment with a bait or labelling near it, and not all partners need be listed.

Biological target: T1, glyceraldehyde-3-phosphate dehydrogenase of P. lutzii (recombinant bait or endogenous: the approach is not told for these partners) (Paracoccidioides lutzii) (UniProt Q8X1X3)
T1 sequence: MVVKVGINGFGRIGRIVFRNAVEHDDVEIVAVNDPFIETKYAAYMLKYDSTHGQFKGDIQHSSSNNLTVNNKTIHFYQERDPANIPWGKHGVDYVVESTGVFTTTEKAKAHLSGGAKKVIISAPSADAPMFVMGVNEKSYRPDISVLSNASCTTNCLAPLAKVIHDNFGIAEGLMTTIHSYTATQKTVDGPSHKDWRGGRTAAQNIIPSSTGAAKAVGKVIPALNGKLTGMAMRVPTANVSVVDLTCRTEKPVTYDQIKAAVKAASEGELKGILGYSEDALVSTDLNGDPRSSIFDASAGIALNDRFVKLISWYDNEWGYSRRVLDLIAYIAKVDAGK
Experiment: affinity purification with mass spectrometry + native gel or EMSA; Ni-NTA pull down with recombinant GAPDH or Blue Native PAGE of P. lutzii extracts, each with mass spectrometry; the text shown does not tell which of the two approaches found these partners

binding	Substance
binds	citrate synthase (enzyme)
binds	L-threonine 3-dehydrogenase (enzyme)
binds	ribose-phosphate pyrophosphokinase (enzyme)
binds	malate dehydrogenase (enzyme)
binds	aconitase (enzyme)
binds	oxidoreductase 2-nitropropane dioxygenas (enzyme)
binds	fumarylacetoacetase (enzyme)
binds	cystathionine γ-lyase (enzyme)
binds	isovaleryl-CoA dehydrogenase (enzyme)
binds	tubulin α-1 chain
binds	aspartate aminotransferase (enzyme)
binds	peroxin-19
binds	acyl-CoA dehydrogenase (enzyme)
binds	adenosylhomocysteinase (enzyme)
binds	cobalamin-independent methionine synthase (enzyme)
binds	pyruvate decarboxylase (enzyme)
binds	o-acetylhomoserine thiol-lyase (enzyme)
